Results from PMC4557121, “TRB3 links insulin/IGF to tumour promotion by interacting with p62 and impeding autophagic/proteasomal degradations” (Nature Communications, 2015).
Results are given in words; binding and its absence hold for the method and conditions named. For part of these data: In cells and extracts the contact can be indirect. Some binding calls cover weakened binding; strength is not graded here.

Protein sequences, listed by entry. Tags and fused reporters are not part of them.
UniProt Q96RU7: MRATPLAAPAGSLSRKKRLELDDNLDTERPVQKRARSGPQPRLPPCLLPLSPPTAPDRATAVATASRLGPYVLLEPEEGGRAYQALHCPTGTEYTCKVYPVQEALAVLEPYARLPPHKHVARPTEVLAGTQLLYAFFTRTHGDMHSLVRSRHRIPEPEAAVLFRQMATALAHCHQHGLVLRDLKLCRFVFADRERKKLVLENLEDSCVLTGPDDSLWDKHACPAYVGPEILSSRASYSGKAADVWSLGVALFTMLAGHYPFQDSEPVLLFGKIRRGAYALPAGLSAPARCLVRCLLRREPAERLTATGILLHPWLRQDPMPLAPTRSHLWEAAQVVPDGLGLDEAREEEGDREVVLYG
UniProt Q13546: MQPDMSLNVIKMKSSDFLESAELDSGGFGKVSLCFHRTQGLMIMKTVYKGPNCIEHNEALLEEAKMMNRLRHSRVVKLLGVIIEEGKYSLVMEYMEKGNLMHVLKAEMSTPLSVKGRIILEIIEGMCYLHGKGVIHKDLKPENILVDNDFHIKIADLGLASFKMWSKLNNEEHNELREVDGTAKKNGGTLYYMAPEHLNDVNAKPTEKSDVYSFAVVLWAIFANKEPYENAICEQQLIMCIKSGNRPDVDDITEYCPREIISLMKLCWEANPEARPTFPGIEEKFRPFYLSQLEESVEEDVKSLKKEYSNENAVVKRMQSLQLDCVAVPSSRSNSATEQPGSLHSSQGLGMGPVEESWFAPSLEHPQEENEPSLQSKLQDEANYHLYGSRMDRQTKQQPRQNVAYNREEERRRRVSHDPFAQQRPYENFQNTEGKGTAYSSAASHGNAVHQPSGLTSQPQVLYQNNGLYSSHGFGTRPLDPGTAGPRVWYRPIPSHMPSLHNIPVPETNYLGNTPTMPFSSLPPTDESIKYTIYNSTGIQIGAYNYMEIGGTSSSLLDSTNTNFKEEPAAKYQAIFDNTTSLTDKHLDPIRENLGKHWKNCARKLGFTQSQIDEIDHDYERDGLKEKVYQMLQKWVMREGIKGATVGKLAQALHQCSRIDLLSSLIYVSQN

Assays:
TRB3-GST fusion protein = TRB3-GST fusion protein (UniProt Q96RU7); assay: pull-down; purified and immobilized GST fusion proteins from E. coli BL21 incubated with His-tagged purified protein; bound proteins blotted with anti-His antibody; both purified
[1] = target: p62 (endogenous) (human (endogenous in HepG2)) (UniProt Q13501); assay: co-IP; HepG2 cells treated with control or Pep2–A2 peptide (5 μM, 12 h), lysates immunoprecipitated; Supplementary Fig. 6b–f, legend not shown
purified TRB3 protein = purified TRB3 protein (UniProt Q96RU7); assay: ELISA; competitive: plates coated with TRB3; p62 binding competed with 0.1–100 μg ml^-1 of HRP-non-conjugated A2 or control peptide, 1 h; both purified

For His-p62 (from UniProt Q13501 1-440), the binding (TRB3-GST fusion protein) was “binds”.
With RIP1 (from UniProt Q13546 1-671) the binding [1] was “binds”.
For “p62 protein (ELISA) (from UniProt Q13501 1-440)”, the binding (purified TRB3 protein) was “binds”.
